The list does not hold the whole screen: it is rich in T/C values a quarter to a half above the control, in often repeated tests (any T/C) and in doses without a T/C. Other doses and runs of a compound stand elsewhere. T/C: endpoint of the treated group in % of that of the vehicle group. Some doses have a count of surviving animals in place of a T/C: the source files T/C as zero there, which appears to mark a toxic dose or a test without result, not a measured value. Some survivor counts are full or nearly so, which does not show that the dose was tolerated: the source hardly ever lists a survival T/C far under the control, and the zero likely stands for such cases as well. Counts of survivors are from the toxicity check (mostly the fifth day) where no day follows; animals may have died later. Schedules are NCI's codes, taken here to give the interval after Q, in days (D) or hours (H), and the number of doses after X. Some doses were run more than once; the values are given in rising order. Where survival is the endpoint, the PubChem record calls one and a half times the control and up active, and a quarter to a half above the control has no call in these data; cut-offs in other NCI protocols can differ. Signs of the kind (2×) count equal records among those shown. Some T/C values are followed by the survivors on the day toxicity was checked, most often the fifth; without a count, all were alive then.
Tested on: P388 leukemia ip, CD2F1 mice, survival T/C
Experiment: NCI In Vivo Anticancer Drug Screen. Data for tumor model P388 Leukemia (intraperitoneal) in CD2F1 (CDF1) mice
Conditions: T/C endpoint: median survival time, higher T/C = longer survival
[1] = dose: 100.0 mg/kg/injection, schedule: Q01DX009 (ip), vehicle: saline with Tween-80
[2] = dose: 50.0 mg/kg/injection, schedule: Q01DX009 (ip), vehicle: saline
[3] = dose: 200.0 mg/kg/injection, schedule: Q01DX009 (ip), vehicle: saline
[4] = dose: 100.0 mg/kg/injection, schedule: Q01DX009 (ip), vehicle: saline

C[CH2][Sn]([F])([CH2]C)[CH2]C
T/C (dose: 0.37 mg/kg/injection, schedule: Q01DX009 (ip), vehicle: saline with Tween-80): 137 % of control | T/C (dose: 0.75 mg/kg/injection, schedule: Q01DX009 (ip), vehicle: saline with Tween-80): 148 % of control | T/C (dose: 1.5 mg/kg/injection, schedule: Q01DX009 (ip), vehicle: saline with Tween-80): 142 % of control | T/C (dose: 3.0 mg/kg/injection, schedule: Q01DX009 (ip), vehicle: Klucel (hydroxypropylcellulose) (HPC)): 125 % of control | survivor count (dose: 6.0 mg/kg/injection, schedule: Q01DX009 (ip), vehicle: Klucel (hydroxypropylcellulose) (HPC)): 2 of 6, 3 of 6, 5 of 6 | survivor count (dose: 6.0 mg/kg/injection, schedule: Q01DX009 (ip), vehicle: saline with Tween-80): 5 of 6 | survivor count (dose: 12.0 mg/kg/injection, schedule: Q01DX009 (ip), vehicle: Klucel (hydroxypropylcellulose) (HPC)): 0 of 6

Nc1ccn(C2CC(N)C(CO)O2)c(=O)n1 (stereo not drawn)
T/C (dose: 50.0 mg/kg/injection, schedule: Q01DX005 (ip), vehicle: water): 128 and 135 % of control | T/C (dose: 100.0 mg/kg/injection, schedule: Q01DX005 (ip), vehicle: water): 143 and 145 % of control

COc1cc(C=Nc2cc(Cl)c(O)c(Cl)c2)ccc1N(CCCl)CCCl
survivor count (dose: 37.5 mg/kg/injection, schedule: Q04DX003 (ip), vehicle: saline): 3 of 6

N#C/C(=C1/NC(=O)c2ccccc21)c1nc2ccccc2n1CCO
survivor count (dose: 50.0 mg/kg/injection, schedule: Q01DX009 (ip), vehicle: saline with Tween-80): 6 of 6 | survivor count [1]: 6 of 6

CCC(C)C(=O)OC1CCC=C2C=CC(C)C(CCC3CC(O)CC(=O)O3)C21 (stereo not drawn)
survivor count (dose: 120.0 mg/kg/injection, schedule: Q01DX009 (ip), vehicle: saline): 6 of 6

NCCOc1c2occc2cc2ccc(=O)oc12
survivor count (dose: 200.0 mg/kg/injection, schedule: Q01DX001 (ip), vehicle: saline): 0 of 6 | survivor count (dose: 400.0 mg/kg/injection, schedule: Q01DX001 (ip), vehicle: saline): 0 of 6

CN(C)c1ccc2[nH]c3c(C(=O)O)cc(=O)c(=O)c=3oc2c1
survivor count (dose: 200.0 mg/kg/injection, schedule: Q01DX005 (ip), vehicle: saline with Tween-80): 0 of 5

ClCc1ccc(Oc2ccc(CCl)cc2)cc1
T/C (dose: 25.0 mg/kg/injection, schedule: Q01DX009 (ip), vehicle: Klucel (hydroxypropylcellulose) (HPC)): 127 % of control | T/C (dose: 50.0 mg/kg/injection, schedule: Q01DX009 (ip), vehicle: Klucel (hydroxypropylcellulose) (HPC)): 131 % of control (2×) | survivor count (dose: 100.0 mg/kg/injection, schedule: Q01DX009 (ip), vehicle: Klucel (hydroxypropylcellulose) (HPC)): 6 of 6 | survivor count (dose: 200.0 mg/kg/injection, schedule: Q01DX009 (ip), vehicle: Klucel (hydroxypropylcellulose) (HPC)): 2 of 6

CSCCC(N)C(=O)OCN1C(=O)C2C3C=CC(C2C1=O)C1C2C(=O)N(COC(=O)C(N)CCSC)C(=O)C2C31 (stereo not drawn)
T/C [2]: 129 % of control | survivor count [3]: 6 of 6

[Cl][Eu]([Cl])[Cl]
survivor count [4]: 6 of 6 | survivor count [3]: 6 of 6 | survivor count (dose: 400.0 mg/kg/injection, schedule: Q01DX009 (ip), vehicle: saline): 1 of 6

C=C1CCN(c2ccc(C)cc2)C1=O
survivor count (dose: 32.0 mg/kg/injection, schedule: Q01DX009 (ip), vehicle: saline + alcohol): 6 of 6

CCN([NH-])C(=S)[S-].CCN([NH-])C(=S)[S-].[Ni]
T/C (dose: 25.0 mg/kg/injection, schedule: Q04DX003 (ip), vehicle: Klucel (hydroxypropylcellulose) (HPC)): 126 % of control | survivor count (dose: 50.0 mg/kg/injection, schedule: Q04DX003 (ip), vehicle: Klucel (hydroxypropylcellulose) (HPC)): 2 of 6 | survivor count (dose: 100.0 mg/kg/injection, schedule: Q04DX003 (ip), vehicle: Klucel (hydroxypropylcellulose) (HPC)): 1 of 6

CC(O)CN(CCN(CC(C)O)CC(C)O)CC(C)O.[Cl-].[Zn+2] (stereo not drawn)
T/C [2]: 128 [4 of 6 alive] and 134 % of control | survivor count [4]: 0 of 6 | survivor count [3]: 0 of 6

CC(C)Cc1cn(O)c2nc(=N)nc(N)c-2n1
survivor count [1]: 1 of 6

From PubChem BioAssay AID330 (DTP/NCI, 2004)
